# Laboratory results as given in patent US9877981B2, “NAD biosynthesis and precursors for the treatment and prevention of cancer and proliferation” (President and Fellows of Harvard College, priority 2012, dated 2018).
# At least one compound was matched to its structure with a doubt left.
# Legend:
# NAD+/NADH = NAD+/NADH ratio in primary myoblasts treated with pyruvate or lactate; type: cell-based, mouse; details: supplementation with 10 mM pyruvate 24 h
# Description: (§1) Primary myoblasts cells were isolated from WT, SIRT1 KO (Price et al., 2012) and PGC-1α/β KO (Zechner et al., 2010) mice as previously described (Price et al., 2012). WT and PGC-1α/β KO primary myoblasts were plated and allowed to differentiate into myotubes by replacing the media with low glucose DMEM supplemented with 2% horse serum (Sigma-Aldrich) for 4 days. After the differentiation the cells were infected with empty vector or flag-SIRT1 adenovirus as described before (Gerhart-Hines et al., 2007). Media was replaced with fresh DMEM supplemented with 2% horse serum (Sigma-Aldrich) for an additional 48 hr and, after that the cells were harvested for the different assays as described. To investigate the role of HIF-1α in genome asynchrony, PGC-1α/β KO primary myotubes were treated for 12 hours with 1 mM DMOG (Sigma) or 10 μM DFO (Sigma), 24 h after infection with empty vector of flag-SIRT1 adenovirus or after 12 h treatment with 500 mM NMN (Sigma).
# PGC-1α/β KO myotubes = assay: qPCR of ETC genes in PGC-1α/β KO myotubes; type: cell-based, mouse; details: PGC-1α/β KO cells; 10 mM pyruvate 24 h
# Description: as §1, with “To investigate the role of HIF-1α in genome asynchrony, PGC-1α/β KO primary myotubes were treated for 12 hours with 1 mM DMOG (Sigma) or 10 μM DFO (Sigma), 24 h after infection with empty vector of flag-SIRT1 adenovirus or after 12 h treatment with 500 mM NMN (Sigma).” left out
# RNA from skeletal muscle tissue and C2C12 cells were extracted with RNeasy mini kit (Qiagen) according to the instructions and quantified using the NanoDrop 1000 spectrophotometer (Thermo Scientific). cDNA was synthesized with the iSCRIP cDNA synthesis kit (BioRad) using 600 ng of RNA. Quantitative RT-PCR reactions were performed using 1 μM of primers and LightCycler® 480 SYBR Green Master (Roche) on an LightCycler® 480 detection system (Roche). […]
smiles,measurement,setting,value
CC(=O)C(=O)O [pyruvate],NAD levels,NAD+/NADH,increasing NAD levels
same,expression of mitochondrial-encoded genes,PGC-1α/β KO myotubes,increased mitochondrial-encoded genes
